Laboratory results: publication PMC6208384 (2018)
The exact form of at least one protein or probe is not confirmed.

Experiments:
[1] = system: Fab BL3-6; test: X-ray crystallography (1.8 A); settings: OTB-SO3 bound, Mg2+; recombinant protein; label: 5'-32P (filter binding)
[2] = system: Fab BL3-6; test: X-ray crystallography (2.0 A); settings: apo (no fluorophore), Mg2+; recombinant protein; label: 5'-32P (filter binding)

GGAUGCGCCUUGAAAAGCCUGCGAAACACGCAGCUGGUGAAUGACAGCUAUGGCGCAUCC [DIR2s_GAAACAC RNA]
binding result [1]: binds
binding result [2]: binds
